Results are given in words; binding and its absence hold for the method and conditions named. In cells and extracts the contact can be indirect. Binding calls can cover weak binding; strength is not graded here.
Target: TRIM28 (endogenous, HEK293T cells) (human (endogenous in HEK293T)) (UniProt Q13263)
Test: co-IP; HEK293T cells transfected 24 hr with EGFP-tagged ZMYM2 plasmids; lysates with protease inhibitors and 20 mM NEM; IP with TRIM28 antibody, immunoblot with GFP and TRIM28 antibodies

Protein sequences, listed by entry. Tags and fused reporters are not part of them. Lines headed by an entry give the natural chain unless they say otherwise; changes in a name come on top.
UniProt Q13263: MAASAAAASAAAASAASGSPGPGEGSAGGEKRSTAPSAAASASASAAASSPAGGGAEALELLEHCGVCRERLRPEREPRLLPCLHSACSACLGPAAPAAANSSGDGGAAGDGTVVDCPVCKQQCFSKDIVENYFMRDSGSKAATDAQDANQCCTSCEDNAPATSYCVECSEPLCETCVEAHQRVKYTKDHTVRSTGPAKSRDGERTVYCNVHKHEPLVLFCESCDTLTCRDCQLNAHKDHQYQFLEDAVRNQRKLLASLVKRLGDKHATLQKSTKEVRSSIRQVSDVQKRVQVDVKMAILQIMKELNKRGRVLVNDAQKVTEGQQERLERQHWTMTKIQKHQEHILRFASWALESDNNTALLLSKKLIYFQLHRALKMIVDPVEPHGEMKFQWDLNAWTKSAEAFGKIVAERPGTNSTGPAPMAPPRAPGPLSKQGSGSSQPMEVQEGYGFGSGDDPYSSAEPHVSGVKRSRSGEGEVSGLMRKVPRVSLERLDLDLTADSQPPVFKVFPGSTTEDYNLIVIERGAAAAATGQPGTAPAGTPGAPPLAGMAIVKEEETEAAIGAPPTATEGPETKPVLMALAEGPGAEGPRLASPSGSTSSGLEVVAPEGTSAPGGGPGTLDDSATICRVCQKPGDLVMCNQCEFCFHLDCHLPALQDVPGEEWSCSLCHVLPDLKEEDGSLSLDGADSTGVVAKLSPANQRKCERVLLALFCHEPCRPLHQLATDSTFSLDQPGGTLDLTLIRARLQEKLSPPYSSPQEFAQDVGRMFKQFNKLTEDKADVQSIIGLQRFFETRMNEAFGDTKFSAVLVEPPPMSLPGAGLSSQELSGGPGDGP
UniProt Q9UBW7: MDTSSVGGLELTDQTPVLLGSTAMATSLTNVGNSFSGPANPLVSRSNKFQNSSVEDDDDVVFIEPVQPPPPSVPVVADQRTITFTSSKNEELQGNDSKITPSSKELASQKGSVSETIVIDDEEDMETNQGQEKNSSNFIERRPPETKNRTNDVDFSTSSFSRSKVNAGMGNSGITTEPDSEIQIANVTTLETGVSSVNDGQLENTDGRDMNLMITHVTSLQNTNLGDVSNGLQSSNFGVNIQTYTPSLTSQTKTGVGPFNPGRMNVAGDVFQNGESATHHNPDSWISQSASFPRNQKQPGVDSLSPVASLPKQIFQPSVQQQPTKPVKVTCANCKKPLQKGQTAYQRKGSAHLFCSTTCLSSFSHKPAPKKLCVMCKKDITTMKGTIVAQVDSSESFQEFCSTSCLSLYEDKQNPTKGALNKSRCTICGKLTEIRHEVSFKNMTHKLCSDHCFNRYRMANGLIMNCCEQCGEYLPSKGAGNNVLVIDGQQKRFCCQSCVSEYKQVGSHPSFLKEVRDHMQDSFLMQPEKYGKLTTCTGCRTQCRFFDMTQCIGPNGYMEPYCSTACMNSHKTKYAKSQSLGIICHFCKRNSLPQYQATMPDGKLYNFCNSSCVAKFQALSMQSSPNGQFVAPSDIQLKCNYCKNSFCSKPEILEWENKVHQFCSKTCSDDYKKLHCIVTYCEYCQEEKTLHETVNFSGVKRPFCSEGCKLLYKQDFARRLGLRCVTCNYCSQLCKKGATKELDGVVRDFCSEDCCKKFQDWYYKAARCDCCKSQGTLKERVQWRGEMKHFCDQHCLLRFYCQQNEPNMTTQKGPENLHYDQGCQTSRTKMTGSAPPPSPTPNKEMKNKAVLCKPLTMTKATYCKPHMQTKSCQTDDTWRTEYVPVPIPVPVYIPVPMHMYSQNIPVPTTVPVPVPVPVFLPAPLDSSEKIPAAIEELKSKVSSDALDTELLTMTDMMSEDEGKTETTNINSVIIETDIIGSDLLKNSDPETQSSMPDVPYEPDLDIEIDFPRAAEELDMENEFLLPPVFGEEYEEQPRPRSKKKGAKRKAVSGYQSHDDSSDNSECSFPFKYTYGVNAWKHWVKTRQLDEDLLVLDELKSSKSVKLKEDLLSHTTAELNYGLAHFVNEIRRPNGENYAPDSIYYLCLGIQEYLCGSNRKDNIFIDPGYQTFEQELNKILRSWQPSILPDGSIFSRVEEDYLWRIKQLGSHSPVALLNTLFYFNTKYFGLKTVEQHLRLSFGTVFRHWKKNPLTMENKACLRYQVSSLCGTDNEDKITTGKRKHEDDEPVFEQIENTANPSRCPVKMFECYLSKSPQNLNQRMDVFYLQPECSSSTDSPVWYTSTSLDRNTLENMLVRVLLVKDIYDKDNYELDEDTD

binding: binds
Substance: EGFP-ZMYM2(SIMmut) (from UniProt Q9UBW7)
